Test results: paper PMC8015805
These are yes or no findings as the source states them, for the method shown. In cells and extracts the contact can be indirect. Where a sequence is shown, tags or fusion partners need not be part of it.

Chains of the proteins cited; added tags and fusions are not shown.
UniProt P21454: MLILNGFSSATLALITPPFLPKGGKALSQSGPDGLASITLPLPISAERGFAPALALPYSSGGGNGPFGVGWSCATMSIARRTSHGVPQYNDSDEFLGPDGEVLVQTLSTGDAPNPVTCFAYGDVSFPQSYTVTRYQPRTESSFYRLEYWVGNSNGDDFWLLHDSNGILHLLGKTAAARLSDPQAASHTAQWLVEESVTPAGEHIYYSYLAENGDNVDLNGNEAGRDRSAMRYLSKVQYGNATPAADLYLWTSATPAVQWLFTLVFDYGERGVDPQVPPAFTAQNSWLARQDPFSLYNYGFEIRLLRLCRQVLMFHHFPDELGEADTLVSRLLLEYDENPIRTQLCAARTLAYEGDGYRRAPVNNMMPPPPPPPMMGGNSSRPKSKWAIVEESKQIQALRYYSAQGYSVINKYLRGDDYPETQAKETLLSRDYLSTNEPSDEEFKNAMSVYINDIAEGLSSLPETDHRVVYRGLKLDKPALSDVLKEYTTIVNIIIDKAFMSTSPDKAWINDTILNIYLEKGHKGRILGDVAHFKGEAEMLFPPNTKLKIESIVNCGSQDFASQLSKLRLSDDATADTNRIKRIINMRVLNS

Experiments:
[1] = molecular target: T1, HA-tagged IKKα (UniProt O15111); assay: co-IP; 293T cells co-transfected for 24 h; lysed in RIPA buffer; precleared with protein A/G Plus-agarose; immunoprecipitated with anti-HA or anti-FLAG overnight at 4°C; blotted with anti-FLAG, anti-EGFP or anti-HA
T1 sequence: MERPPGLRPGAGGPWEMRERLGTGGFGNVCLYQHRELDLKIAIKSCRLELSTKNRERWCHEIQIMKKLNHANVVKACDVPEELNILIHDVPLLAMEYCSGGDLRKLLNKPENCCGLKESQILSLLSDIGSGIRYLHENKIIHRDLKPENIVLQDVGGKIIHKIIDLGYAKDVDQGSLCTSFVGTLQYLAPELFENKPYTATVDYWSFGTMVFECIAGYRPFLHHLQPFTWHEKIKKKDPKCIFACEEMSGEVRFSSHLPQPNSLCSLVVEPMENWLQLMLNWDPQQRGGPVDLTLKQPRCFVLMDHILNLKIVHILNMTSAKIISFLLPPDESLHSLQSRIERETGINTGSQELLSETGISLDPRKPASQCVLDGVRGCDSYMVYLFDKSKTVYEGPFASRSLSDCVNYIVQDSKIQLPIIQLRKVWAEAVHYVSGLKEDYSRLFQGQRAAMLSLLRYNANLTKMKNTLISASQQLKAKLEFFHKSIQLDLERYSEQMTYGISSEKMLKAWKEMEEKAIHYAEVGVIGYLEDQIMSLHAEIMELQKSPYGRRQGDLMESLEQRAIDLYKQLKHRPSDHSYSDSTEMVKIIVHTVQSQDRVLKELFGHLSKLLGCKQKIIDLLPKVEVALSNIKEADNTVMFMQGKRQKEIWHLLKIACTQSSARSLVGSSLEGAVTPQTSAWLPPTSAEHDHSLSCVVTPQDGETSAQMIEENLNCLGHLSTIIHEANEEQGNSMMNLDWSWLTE

[2] = molecular target: T2, FLAG-tagged IKKβ (UniProt O14920); assay: as above
T2 sequence: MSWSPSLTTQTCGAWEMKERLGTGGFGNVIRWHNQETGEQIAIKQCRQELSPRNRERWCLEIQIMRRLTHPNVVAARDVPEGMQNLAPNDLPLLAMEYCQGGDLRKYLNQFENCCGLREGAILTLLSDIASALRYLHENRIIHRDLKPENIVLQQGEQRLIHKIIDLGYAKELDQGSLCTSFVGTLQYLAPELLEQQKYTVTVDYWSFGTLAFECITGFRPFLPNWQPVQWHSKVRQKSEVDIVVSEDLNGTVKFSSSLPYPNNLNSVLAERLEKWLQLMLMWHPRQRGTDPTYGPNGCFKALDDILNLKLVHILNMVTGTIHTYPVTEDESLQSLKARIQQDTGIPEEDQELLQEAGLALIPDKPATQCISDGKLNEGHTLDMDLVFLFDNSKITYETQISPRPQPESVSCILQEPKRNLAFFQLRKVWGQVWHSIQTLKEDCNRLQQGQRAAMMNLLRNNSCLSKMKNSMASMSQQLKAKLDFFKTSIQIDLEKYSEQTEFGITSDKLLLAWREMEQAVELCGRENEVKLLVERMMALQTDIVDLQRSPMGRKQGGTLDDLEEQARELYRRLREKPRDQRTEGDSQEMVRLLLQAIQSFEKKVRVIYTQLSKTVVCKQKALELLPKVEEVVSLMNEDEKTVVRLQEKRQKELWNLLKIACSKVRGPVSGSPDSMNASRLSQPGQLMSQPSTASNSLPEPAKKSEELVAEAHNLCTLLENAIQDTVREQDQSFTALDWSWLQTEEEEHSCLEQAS

“EGFP-tagged SpvB (HA-SpvB-EGFP fusion protein) (from UniProt P21454 1-591)” was tested, and the binding [1] was “no binding” and the binding [2] was “no binding”.
